In the supplement of paper PMC12823440, “Inhibitors supercharge kinase turnover through native proteolytic circuits” (Nature, 2025):
Counter-ions that a name gives are not always drawn. This is one part of the list. Hit calls seldom repeat between salt and free forms of one compound.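 Kinases, fused to nanoluciferase, were expressed in K562 cells; luminescence was measured every 4 h from 2 to 18 h as percent of control (DMSO = 100%, positive control = 0%). A time point is decreased if signal falls significantly (2 sigma). Hits were called by the authors by a rule that is not shown; the count of time points alone does not decide it.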

What follows are compounds tested against EGFR (UniProt P00533) (assay: kinase-Nluc reporter destabilization hit call (1 = scored as downregulated) (binary); higher = compound decreases kinase abundance). Conditions: K562; 2-18 h.

kinase-Nluc reporter destabilization hit call, inactive:
O=c1cc(-c2ccc(O[C@@H]3O[C@H](CO)[C@@H](O)[C@H](O)[C@H]3O)cc2)oc2cc(O)c([C@@H]3O[C@H](CO)[C@@H](O)[C@H](O)[C@H]3O[C@@H]3OC[C@H](O)[C@H](O)[C@H]3O)c(O)c12 [Vaccarin] (10 µM) 0
O=CN1CCN(c2ccc(C=C3C(=O)Nc4ccccc43)cc2)CC1 (10 µM) 0
COc1ccc(Cl)cc1N(CC(=O)Nc1ccc2c(c1)OCO2)S(=O)(=O)c1ccccc1 (2.5 µM) 0
CCc1c(C(=O)NNC(=O)[C@H](O)c2cc(F)cc(F)c2)ccc(O)c1C (10 µM) 0
CN(C)CCn1cc2cc(NC(=O)c3cccc(C(F)(F)F)n3)c(C(C)(C)O)cc2n1 (10 µM) 0
CCC[C@H](C)Oc1nc(N)c2[nH]c(=O)n(CCCCCN3CCCCC3)c2n1 (10 µM) 0
CCOC(=O)c1c(C)[nH]c(C=C2C(=O)Nc3ccccc32)c1C (10 µM) 0
Cc1ccc(NC(=O)N2CCN(c3nc(N)nc4sc(-c5cccnc5)nc34)CC2)cc1 [PI4KIII beta inhibitor 3] (10 µM) 0
CS[C@@]1(C(=O)Nc2ccc3[nH]nc(-c4ccc(OC(C)C)nc4)c3c2)CCN(CC(=O)N2CC=C(c3ccc(-c4ncn(C)n4)cc3)CC2)C1 (2.5 µM) 0
O=C(Nc1ccc(Cl)cc1)C1CN(C(=O)c2cccc(-c3ccco3)c2)CC(F)(F)C1 (stereo not drawn) (2.5 µM) 0
Nc1ccc(Sc2nc3ccccc3s2)c(Cl)c1 [KRAS inhibitor-9] (10 µM) 0
Cn1c(N2CCO[C@@H](c3ccc(F)cc3)C2)nc(-c2ccncn2)cc1=O (10 µM) 0
COc1ccc(CN2CCC(c3ccc4nc(C(=O)N5CCN(Cc6ccc(C(F)(F)F)cc6)CC5)[nH]c4c3)CC2)cn1 (2.5 µM) 0
O=C(O)c1c[nH]c2cc(Cl)c(-c3ccc(C4(O)CCC4)cc3)cc12 (10 µM) 0
CC(C)(Oc1ccc(Cl)cc1)C(=O)Nc1ccc(OCc2ccc(C#N)cc2)cc1 [AMPK activator 4] (10 µM) 0
O=C(NCc1ccn[nH]1)c1cc([C@@H]2CCNC[C@H]2COc2ccc3c(c2)OCO3)ccc1F [GRK2-IN-1 (hydrochloride)] (10 µM) 0
Cc1cnc(Cl)nc1-c1ccc(N(Cc2ccc(CNC(=O)C(F)F)cc2)C(=O)c2ccc(O)cc2O)cc1 (10 µM) 0
CC1=C(C#N)C(c2ccc3[nH]nc(C)c3c2)C(C#N)=C(C)N1 (10 µM) 0
CN(C[C@@H]1COCCO1)S(=O)(=O)Nc1ccc2ccc3ncc(-c4cnn(C)c4)cc3c(=O)c2c1 (2.5 µM) 0
CC(=O)Nc1nc(C)c(-c2cc(C)c3c(c2)CN([C@@H](C)C2CC2)C3=O)s1 (10 µM) 0
O=C(Nc1ccccc1C(=O)NC1CCCCNC1=O)c1cc2ccccc2s1 (stereo not drawn) (10 µM) 0
CO[C@]1(C(=O)N[C@@H](C)c2ccc(-n3cc(F)cn3)nc2)CC[C@H](c2nc(C)cc(Nc3cc(C)[nH]n3)n2)CC1 [Pralsetinib] (10 µM) 0
O=[N+]([O-])c1ccc(-c2nc(-c3ccc(F)cc3)c(-c3ccncc3)[nH]2)cc1 (10 µM) 0
CC(ONC(=O)c1cc(C(F)(F)F)cc(C(F)(F)F)c1)C(=O)Nc1ccc(Cl)cc1 (stereo not drawn) (2.5 µM) 0
Cc1cncc2cccc(S(=O)(=O)N3CCCNC[C@@H]3C)c12 [H-1152 (dihydrochloride)] (10 µM) 0
Cc1nc(NC(=O)N2CCC[C@H]2C(N)=O)sc1-c1ccnc(C(C)(C)C(F)(F)F)c1 [Alpelisib] (2.5 µM) 0
CCCCNc1ncc2c(-c3ccc(F)cc3)nn(CC3CCC(N)CC3)c2n1 (stereo not drawn) (2.5 µM) 0
CS(=O)(=O)c1ccc([C@@H](CC2CCCC2)C(=O)Nc2nccs2)cc1 (10 µM) 0
CO/N=C1/C(c2c(O)[nH]c3cc(Cl)c(Cl)cc23)=Nc2ccccc21 (10 µM) 0
CNCc1ccccc1Sc1cccc2ccccc12 [IFN alpha-IFNAR-IN-1 (hydrochloride)] (10 µM) 0
C=CC(=O)N1CCC(c2ccc(C(N)=O)c(-c3ccc(Oc4ccccc4)cc3)n2)CC1 [Orelabrutinib] (2.5 µM) 0
Cc1cc2c(F)c(Oc3ncnn4cc(OC[C@@H](C)OC(=O)[C@H](C)N)c(C)c34)ccc2[nH]1 [Brivanib (alaninate)] (10 µM) 0
CCC(F)(F)c1cc(N2CCC(S(C)(=O)=O)CC2)nc2sc(C(N)=O)c(N)c12 (10 µM) 0
NC(=O)c1c(NC(=O)C2CC2)sc2c1CCCC2 (10 µM) 0
CC(C)=CCC[C@](C)(O[C@@H]1O[C@H](CO[C@@H]2O[C@H](CO)[C@@H](O)[C@H](O)[C@H]2O)[C@@H](O)[C@H](O)[C@H]1O)[C@H]1CC[C@]2(C)[C@@H]1[C@H](O)C[C@@H]1[C@@]3(C)CC[C@H](O[C@@H]4O[C@H](CO)[C@@H](O)[C@H](O)[C@H]4O[C@@H]4O[C@H](CO)[C@@H](O)[C@H](O)[C@H]4O)C(C)(C)[C@@H]3CC[C@]12C [Ginsenoside Rb1] (10 µM) 0
COc1cccc(-c2cc(=O)c3ccccc3o2)c1N (10 µM) 0
C[C@@H]1COC(Nc2ccc3ncnc(Nc4ccc(OCc5nccs5)c(Cl)c4)c3c2)=N1 [Varlitinib] (10 µM) 0
Cc1nc(Nc2cnn(C3CCNCC3)c2)nc2c1N(C)C(=O)c1cc3ccccc3cc1N2C (2.5 µM) 0

Grouped by structure: the compounds so far containing a cyano group (two)
kinase-Nluc reporter destabilization hit call, inactive:
CC(C)(Oc1ccc(Cl)cc1)C(=O)Nc1ccc(OCc2ccc(C#N)cc2)cc1 [AMPK activator 4] (10 µM) 0
CC1=C(C#N)C(c2ccc3[nH]nc(C)c3c2)C(C#N)=C(C)N1 (10 µM) 0
